Patent publication US7144864B2, “Carboxypeptidase R inhibiting peptide” (Hidechika Okada, priority 2002, dated 2006)
Part of at least one peptide drawing is inferred or uncertain, most often the ends. Bridge positions count the residues as written; N and C are the ends. Peptide text beside a SMILES is read from it. I, II: the chains in the order shown.

Tests used:
[1] = biological target: T1, purified CPR (carboxypeptidase R) (Homo sapiens, UniProt Q96IY4); experiment: CPR kinetics: inhibition of CPR-catalysed hydrolysis of hippuryl-L-arginine; type: biochemical
T1 construct: from tissue
T1 sequence (Q96IY4 115-423): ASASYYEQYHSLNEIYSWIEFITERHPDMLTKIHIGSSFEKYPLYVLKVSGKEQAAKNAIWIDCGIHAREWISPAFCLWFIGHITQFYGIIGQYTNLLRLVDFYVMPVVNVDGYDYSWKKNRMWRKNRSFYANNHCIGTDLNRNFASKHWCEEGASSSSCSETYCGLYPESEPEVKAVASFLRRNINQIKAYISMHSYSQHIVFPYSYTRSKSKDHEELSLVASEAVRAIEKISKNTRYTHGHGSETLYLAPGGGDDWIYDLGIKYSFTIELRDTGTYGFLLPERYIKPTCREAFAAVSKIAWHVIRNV
Protocol: ProCPR was purified to homogeneity as previously described. […] CPN was purified to homogeneity as previously described. The enzyme gave three bands on SDS-PAGE at 83 kDa, 53 kDa and 50 kDa corresponding to the two large identical glycosylated subunits and the two smaller active subunits, respectively.
The activity of the CPR inhibitors was determined against purified CPR using hippuryl-L-arginine as the substrate. The peptides PCI-2K-R, CPI-2KR, PCI (500, 250/125/62.5, 50 mg/ml, respectively) or Tris-HCl buffer (50 mM; pH 7.5) were added to active CPR (40–320 mg/ml) at a 1:7 ratio. After thorough mixing, […] was incubated with various concentrations of hippuryl-L-arginine (1.2–6.0 mM), for 15 minutes at 37° C. The reaction was stopped with the addition of sodium phosphate buffer ([…]; 0.25 M), immediately followed by 3% cyanuric chloride in 1,4-dioxane ([…]). After mixing well, the generation of hippuric acid was determined by measuring the OD at 405 nm on a SpectraMAX 250 Microplate Spectrophotometer (Molecular Device Corporation, Sunnyvale, Calif., USA). Hippuric acid (0–2.0 mM) in Tris buffer was used as the standard.
A kinetics analysis of the CPR-catalysed hydrolysis of hippuryl-L-arginine in the absence and presence of inhibitory molecules was performed. […]

[2] = tested on: TM-induced retardation of t-PA-induced fibrinolysis; experiment: TM-induced retardation of t-PA-induced fibrinolysis in human plasma (clot lysis); type: biochemical
Protocol: Human plasma was obtained by centrifugation of citrated blood at 3000 g for 15 minutes at room temperature. In a 96-well microtitre plate, […] of a thrombin/calcium mix [50 ml calcium (CaCl Q; 1 M), […] of thrombin (T; 500 U/ml) and 430 ml of Tris buffer (50 mM, pH 7.5)] was added followed by 10 ml of thrombomodulin (TM; final concentration 8 nM). Subsequently, 10 ml of peptide solution in Tris buffer (16 mg/ml […]), Tris buffer or PCI (50 mg/ml) were added. After the addition of 50 ml of a t-PA/plasma mix [[…] of t-PA (130 mg/ml) mixed with 1 ml of pre-warmed citrated plasma (37° C. for 5 minutes) ] the plate was immediately read at 420 nm every 5 minutes for 2 hours on a SpectraMAX 250 Microplate Spectrophotometer (Molecular Device Corporation, Sunnyvale, Calif., USA). Lysis time was defined as the time required for the absorbance to reach half the difference between the plateau reached after clotting and baseline achieved at clot lysis.

For C[C@H](NC(=O)[C@H](CO)NC(=O)[C@H](CC(N)=O)NC(=O)[C@H](Cc1c[nH]c2ccccc12)NC(=O)[C@H](CSSC[C@H](NC(=O)[C@@H]1CCCN1C(=O)[C@H](CCCCN)NC(=O)[C@@H](N)CC(N)=O)C(=O)N[C@@H](CCCCN)C(=O)N[C@H](C(=O)N[C@@H](Cc1c[nH]cn1)C(=O)N[C@@H](CC(=O)O)C(=O)N[C@@H](CC(=O)O)C(N)=O)[C@@H](C)O)NC(=O)[C@H](C)NC(=O)[C@@H](N)CCC(N)=O)C(=O)N[C@@H](CCCNC(=N)N)C(=O)N[C@H](C(N)=O)[C@@H](C)O [PCI-2K-R] (I: H-NKPCKTHDD-NH2 / II: H-QACWNSART-NH2; disulfide I:4-II:3), the “inhibitory activity against CPR (in words)” value [1] was “weak competitive inhibitor”, the “inhibitory activity against CPR, fold lower compared to PCI” value ([1]; ratio of Ki to PCI) was 290 fold and the “effect on TM-induced retardation of t-PA-induced fibrinolysis (in words)” value [2] was “could not reverse”.
